Experimental data: patent US20170233492A1 (PHARMABCINE, published 2017)
No constants are given. Whether binding was seen depends on the method and setting. Some entries that bind do so weakly or less than the wild type.

By UniProt entry, the sequences of proteins in these tests, tags left out. Residues count along the entry.
UniProt P16056, residues 25-931: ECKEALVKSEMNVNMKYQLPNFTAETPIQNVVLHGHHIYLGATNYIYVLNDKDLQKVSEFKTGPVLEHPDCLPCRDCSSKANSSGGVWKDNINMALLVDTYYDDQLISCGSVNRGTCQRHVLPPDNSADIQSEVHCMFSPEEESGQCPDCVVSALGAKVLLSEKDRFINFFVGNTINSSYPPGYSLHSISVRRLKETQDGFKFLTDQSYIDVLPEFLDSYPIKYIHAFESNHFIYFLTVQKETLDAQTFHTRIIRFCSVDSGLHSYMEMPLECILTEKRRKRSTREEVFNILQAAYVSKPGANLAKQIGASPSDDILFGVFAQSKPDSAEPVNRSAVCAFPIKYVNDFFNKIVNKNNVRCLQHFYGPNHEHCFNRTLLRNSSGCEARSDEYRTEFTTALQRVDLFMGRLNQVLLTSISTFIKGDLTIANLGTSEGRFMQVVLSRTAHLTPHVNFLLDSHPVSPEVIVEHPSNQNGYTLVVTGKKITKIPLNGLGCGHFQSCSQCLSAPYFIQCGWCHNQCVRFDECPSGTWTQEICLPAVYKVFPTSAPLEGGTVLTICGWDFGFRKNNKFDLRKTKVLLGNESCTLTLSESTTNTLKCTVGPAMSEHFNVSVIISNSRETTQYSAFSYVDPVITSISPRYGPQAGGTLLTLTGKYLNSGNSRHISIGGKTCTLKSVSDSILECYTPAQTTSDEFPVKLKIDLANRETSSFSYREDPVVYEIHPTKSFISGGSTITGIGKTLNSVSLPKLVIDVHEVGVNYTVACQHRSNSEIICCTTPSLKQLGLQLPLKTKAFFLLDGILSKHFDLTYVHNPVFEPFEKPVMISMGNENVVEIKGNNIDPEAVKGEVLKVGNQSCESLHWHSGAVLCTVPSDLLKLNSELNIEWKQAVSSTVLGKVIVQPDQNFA

Experiments:
[1] = biological target: Recombinant human HGF R/c-Met Fc chimera (R&D systems, cat no. 358-MT/CF) (human) (UniProt P08581); experiment: SPR (BIAcore), human-c-Met immobilized on chip, antibody flowed
mouse c-Met-Fc [2] = biological target: T1, mouse c-Met-Fc (mouse, UniProt P16056 25-931, limits assumed); experiment: SPR (BIAcore), c-Met immobilized on chip, antibody flowed
T1 construct: Bought reagent (R&D system); also called mouse-c-Met (R&D system); not shown: Fc part

[3] = biological target: Recombinant human HGF R/c-Met Fc chimera (R&D systems, cat no. 358-MT/CF) (human) (UniProt P08581); experiment: as above
mouse c-Met-Fc [4] = biological target: T1, mouse c-Met-Fc; experiment: SPR (BIAcore), mouse-c-Met immobilized on chip, antibody flowed

Measured: binding

B1: 1E4-IgG (antibody, V domains shown)
VH: QVQLVQSGAEVKKPGESLRISCQGSGYSFPTHWITWVRQMPGKGLEWMGTIDPTDSYNFYGPSFQGHVTISADSSSSTAYLQWSSLKASDTAMYYCARDGNYYDSRGYYYDTFDMWGQGTLVTVSS
VL: DIQMTQSPSFLSASVGDRVTITCRASQGISTYLAWYQQKPGTAPKLLIYSASTLESGVPSRFSGSGSGTDFTLTISSLQPEDSATYYCQQADSFPLTFGGGTKVEIKR
notes: also called 1E4 antibody; anti-c-Met IgG (1E4-IgG)
binds: [1] | mouse c-Met-Fc [2] | [3] | mouse c-Met-Fc [4]
